Compound in this experiment: CC1Cc2ccccc2N1C(=O)C1CCCN(C1)C(=O)CCl (mixture of isomers) [TRIM25 ligand 11 (diastereomer mixture)]
As to the kind of experiment: probe-labelled cysteine peptide fold change vs DMSO (competition) (log2 fold change); higher = less target engagement (more negative = stronger competition). The settings on record: THP-1, incubation time: 4 h.

Chains of the proteins cited; added tags and fusions are not shown. Lines headed by an entry give the natural chain unless they say otherwise; changes in a name come on top.
UniProt P61962: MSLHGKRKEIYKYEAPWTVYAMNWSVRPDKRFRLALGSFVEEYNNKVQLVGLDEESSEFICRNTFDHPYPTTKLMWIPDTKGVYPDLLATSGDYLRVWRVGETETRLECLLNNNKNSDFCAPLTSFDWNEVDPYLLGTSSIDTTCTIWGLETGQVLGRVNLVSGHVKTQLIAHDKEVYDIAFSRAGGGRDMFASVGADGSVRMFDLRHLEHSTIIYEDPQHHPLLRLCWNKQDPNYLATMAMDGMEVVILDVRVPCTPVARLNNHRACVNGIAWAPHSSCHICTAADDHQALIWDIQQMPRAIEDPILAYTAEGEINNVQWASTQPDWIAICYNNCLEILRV
UniProt Q9UBR2: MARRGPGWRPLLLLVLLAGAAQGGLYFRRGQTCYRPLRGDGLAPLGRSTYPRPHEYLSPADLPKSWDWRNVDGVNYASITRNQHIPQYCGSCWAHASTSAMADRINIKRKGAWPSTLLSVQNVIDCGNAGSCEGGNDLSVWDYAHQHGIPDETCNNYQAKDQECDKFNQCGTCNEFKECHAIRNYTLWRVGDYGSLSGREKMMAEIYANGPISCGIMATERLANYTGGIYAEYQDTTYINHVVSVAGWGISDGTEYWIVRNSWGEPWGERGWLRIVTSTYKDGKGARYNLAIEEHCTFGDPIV
UniProt P04839: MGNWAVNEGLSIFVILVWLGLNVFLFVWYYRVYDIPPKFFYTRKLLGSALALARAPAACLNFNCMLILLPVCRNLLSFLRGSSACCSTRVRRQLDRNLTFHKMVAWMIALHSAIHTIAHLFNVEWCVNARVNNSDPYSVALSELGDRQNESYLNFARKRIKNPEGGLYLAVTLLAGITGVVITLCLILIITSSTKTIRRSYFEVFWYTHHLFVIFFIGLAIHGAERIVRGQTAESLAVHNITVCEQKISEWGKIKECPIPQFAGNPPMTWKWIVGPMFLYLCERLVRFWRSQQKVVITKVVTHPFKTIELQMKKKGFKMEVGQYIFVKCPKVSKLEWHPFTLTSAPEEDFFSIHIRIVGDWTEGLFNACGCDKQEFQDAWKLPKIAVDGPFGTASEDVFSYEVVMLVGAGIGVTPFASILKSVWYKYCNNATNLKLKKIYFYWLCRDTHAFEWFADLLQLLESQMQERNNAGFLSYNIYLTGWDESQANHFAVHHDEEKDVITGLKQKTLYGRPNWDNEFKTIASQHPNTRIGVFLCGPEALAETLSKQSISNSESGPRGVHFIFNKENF
UniProt Q9P0U4, whole entry, looked up: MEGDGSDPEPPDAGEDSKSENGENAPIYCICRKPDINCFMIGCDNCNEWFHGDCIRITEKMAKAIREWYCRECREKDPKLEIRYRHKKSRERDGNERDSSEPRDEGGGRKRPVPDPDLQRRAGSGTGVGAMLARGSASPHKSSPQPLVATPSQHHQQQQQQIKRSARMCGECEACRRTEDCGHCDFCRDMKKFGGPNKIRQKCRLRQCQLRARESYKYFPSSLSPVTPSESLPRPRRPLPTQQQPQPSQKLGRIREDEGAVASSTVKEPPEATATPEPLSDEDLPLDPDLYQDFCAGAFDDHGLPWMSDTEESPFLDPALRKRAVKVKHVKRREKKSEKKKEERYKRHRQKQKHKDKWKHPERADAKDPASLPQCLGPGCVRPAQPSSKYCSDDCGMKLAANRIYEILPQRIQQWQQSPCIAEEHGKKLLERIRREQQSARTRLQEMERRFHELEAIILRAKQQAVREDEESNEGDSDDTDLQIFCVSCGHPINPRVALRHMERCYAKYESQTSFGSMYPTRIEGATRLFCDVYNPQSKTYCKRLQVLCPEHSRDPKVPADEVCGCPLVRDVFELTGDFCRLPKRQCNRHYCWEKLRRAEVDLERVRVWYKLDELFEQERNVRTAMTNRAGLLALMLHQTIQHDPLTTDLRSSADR
UniProt Q96EP5: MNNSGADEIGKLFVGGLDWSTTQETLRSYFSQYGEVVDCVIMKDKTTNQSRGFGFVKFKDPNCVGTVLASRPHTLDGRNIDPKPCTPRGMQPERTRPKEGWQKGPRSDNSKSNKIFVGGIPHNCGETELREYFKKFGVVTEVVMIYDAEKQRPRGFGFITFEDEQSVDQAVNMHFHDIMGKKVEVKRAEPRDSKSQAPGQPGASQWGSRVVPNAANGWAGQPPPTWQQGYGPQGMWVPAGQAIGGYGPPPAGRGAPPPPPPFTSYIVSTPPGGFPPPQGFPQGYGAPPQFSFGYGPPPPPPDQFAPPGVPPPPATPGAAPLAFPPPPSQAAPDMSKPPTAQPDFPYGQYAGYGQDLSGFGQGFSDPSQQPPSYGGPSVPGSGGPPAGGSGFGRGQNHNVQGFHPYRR
UniProt Q9NRF8: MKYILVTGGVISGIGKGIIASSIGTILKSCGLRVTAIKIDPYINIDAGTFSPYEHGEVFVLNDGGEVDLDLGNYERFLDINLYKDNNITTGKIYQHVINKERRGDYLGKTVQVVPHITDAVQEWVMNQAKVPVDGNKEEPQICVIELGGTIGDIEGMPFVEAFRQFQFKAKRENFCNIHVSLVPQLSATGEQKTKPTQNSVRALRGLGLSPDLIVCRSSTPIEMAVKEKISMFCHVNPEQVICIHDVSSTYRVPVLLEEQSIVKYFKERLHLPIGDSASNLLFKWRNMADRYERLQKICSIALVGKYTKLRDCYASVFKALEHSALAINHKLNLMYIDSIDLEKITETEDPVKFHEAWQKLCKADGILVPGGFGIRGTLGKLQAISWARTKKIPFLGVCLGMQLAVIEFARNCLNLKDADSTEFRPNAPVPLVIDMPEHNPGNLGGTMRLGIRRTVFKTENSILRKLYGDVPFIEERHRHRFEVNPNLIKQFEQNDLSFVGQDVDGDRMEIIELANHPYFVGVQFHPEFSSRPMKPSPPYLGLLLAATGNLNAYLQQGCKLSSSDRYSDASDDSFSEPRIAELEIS
UniProt Q8TB03: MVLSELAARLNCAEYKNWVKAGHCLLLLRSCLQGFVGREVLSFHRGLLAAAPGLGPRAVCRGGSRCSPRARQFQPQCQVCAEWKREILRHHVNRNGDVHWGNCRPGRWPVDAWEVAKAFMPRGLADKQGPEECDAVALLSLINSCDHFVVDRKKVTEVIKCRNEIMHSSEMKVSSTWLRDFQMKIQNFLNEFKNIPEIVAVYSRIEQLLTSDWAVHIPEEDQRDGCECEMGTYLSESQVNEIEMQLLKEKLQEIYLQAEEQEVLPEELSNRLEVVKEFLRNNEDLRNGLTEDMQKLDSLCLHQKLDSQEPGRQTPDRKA
UniProt Q96JK2, whole entry, looked up: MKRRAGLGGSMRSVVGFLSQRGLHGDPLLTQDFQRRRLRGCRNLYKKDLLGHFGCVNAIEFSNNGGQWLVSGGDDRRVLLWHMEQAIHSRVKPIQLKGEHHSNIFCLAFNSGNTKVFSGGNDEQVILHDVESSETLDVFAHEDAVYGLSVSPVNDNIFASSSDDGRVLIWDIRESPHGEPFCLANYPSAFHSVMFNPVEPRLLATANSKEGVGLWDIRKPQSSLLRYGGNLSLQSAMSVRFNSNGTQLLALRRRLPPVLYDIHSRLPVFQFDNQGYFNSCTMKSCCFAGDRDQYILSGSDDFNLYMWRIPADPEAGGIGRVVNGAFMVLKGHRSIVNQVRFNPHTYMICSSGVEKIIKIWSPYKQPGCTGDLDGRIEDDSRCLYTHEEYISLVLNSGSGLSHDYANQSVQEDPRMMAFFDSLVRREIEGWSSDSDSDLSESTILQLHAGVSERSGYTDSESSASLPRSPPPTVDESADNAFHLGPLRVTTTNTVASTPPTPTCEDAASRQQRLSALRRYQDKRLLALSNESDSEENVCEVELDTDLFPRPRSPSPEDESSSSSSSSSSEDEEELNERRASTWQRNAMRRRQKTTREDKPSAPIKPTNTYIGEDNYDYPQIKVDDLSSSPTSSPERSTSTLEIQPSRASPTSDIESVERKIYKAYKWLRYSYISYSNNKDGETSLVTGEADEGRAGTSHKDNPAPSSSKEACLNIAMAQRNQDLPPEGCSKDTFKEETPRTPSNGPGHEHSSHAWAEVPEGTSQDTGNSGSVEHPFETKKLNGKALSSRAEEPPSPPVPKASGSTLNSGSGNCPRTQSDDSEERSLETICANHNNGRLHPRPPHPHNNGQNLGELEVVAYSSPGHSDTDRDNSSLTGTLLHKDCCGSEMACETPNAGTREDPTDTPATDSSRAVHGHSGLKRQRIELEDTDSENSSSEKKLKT
UniProt O60888: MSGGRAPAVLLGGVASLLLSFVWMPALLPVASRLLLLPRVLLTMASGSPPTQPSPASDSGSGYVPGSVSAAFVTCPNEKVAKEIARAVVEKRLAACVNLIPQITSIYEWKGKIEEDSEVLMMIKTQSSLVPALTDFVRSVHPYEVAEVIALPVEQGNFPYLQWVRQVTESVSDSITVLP
UniProt Q6PI48: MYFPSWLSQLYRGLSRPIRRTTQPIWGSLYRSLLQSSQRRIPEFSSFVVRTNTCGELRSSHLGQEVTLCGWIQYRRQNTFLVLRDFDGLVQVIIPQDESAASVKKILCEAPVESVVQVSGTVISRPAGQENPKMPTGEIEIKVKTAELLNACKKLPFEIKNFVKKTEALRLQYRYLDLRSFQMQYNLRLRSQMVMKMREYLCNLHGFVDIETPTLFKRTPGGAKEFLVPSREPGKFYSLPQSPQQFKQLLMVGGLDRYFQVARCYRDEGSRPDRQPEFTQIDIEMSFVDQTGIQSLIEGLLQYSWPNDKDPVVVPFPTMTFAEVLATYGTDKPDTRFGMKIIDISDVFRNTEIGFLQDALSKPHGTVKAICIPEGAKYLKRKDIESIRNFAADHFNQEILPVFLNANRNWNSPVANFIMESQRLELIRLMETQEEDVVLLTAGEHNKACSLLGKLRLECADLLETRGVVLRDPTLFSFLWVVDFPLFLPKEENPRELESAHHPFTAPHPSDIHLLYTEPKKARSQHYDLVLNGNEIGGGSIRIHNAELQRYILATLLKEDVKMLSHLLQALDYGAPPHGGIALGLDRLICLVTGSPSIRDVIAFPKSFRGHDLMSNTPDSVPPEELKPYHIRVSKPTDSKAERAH
UniProt P53634: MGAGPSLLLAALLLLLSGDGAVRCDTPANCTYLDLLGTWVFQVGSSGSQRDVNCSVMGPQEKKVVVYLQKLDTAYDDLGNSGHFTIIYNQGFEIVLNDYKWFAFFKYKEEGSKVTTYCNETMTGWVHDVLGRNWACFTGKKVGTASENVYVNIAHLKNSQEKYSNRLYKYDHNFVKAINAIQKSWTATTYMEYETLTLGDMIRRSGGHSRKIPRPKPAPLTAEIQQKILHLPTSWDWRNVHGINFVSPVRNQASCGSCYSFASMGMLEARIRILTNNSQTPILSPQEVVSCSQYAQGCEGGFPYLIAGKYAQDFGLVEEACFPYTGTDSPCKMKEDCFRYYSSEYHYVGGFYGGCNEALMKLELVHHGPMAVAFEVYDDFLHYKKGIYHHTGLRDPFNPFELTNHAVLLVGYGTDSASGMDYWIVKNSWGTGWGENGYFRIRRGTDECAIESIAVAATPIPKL

The other results are listed elsewhere or left out.
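Further: competitive chemoproteomic profiling in live THP-1 cells with an iodoacetamide desthiobiotin (IA-DTB) probe, comparing probe-labelled peptide intensities in compound-treated cells against DMSO-treated controls.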

Turning to “DCAF7_P61962_109_LECLLNNNK (UniProt P61962)”, the “probe-labelled cysteine peptide fold change” value was 0.126 (10 µM) and -0.0123 (50 µM).
As for “CTSZ_Q9UBR2_33_RGQTCYRPLR (UniProt Q9UBR2)”, the “probe-labelled cysteine peptide fold change” value by setting is: (10 µM) 0.0804; (50 µM) 0.00722.
For the target “CYBB_P04839_369_IVGDWTEGLFNACGCDK (UniProt P04839)”, the “probe-labelled cysteine peptide fold change” value runs as follows: (10 µM) 0.164; (50 µM) 0.132.
Turning to “CXXC1_Q9P0U4_181_TEDCGHCDFCR (UniProt Q9P0U4)”, the “probe-labelled cysteine peptide fold change” value (10 µM) was found to be 0.211 and the “probe-labelled cysteine peptide fold change” value (50 µM) is 0.202.
Consider “DAZAP1_Q96EP5_85_NIDPKPCTPR (UniProt Q96EP5)”, for which the “probe-labelled cysteine peptide fold change” value (10 µM) is -0.189 and the “probe-labelled cysteine peptide fold change” value (50 µM) is -0.0218.
On to “CTPS2_Q9NRF8_216_GLGLSPDLIVCR (UniProt Q9NRF8)”, for which the “probe-labelled cysteine peptide fold change” value was found to be 0.357 (10 µM) and 0.0413 (50 µM).
“CXXC1_Q9P0U4_169+172+175_MCGECEACR (UniProt Q9P0U4)”: the “probe-labelled cysteine peptide fold change” value is, setting by setting: (10 µM) -0.186; (50 µM) -0.119.
On to “CXorf38_Q8TB03_133_QGPEECDAVALLSLINSCDHFVVDR (UniProt Q8TB03)”, for which the “probe-labelled cysteine peptide fold change” value is, setting by setting: (10 µM) -0.104; (50 µM) 0.0444.
Take “CTSB_P07858_59_LCGTFLGGPKPPQR (UniProt P07858)”: the “probe-labelled cysteine peptide fold change” value came to 0.0374 (10 µM) and 0.098 (50 µM).
Turning to “DCAF5_Q96JK2_812_ASGSTLNSGSGNCPR (UniProt Q96JK2)”, the “probe-labelled cysteine peptide fold change” value is, setting by setting: (10 µM) -0.15; (50 µM) -0.222.
Turning to “CUTA_O60888_96_LAACVNLIPQITSIYEWK (UniProt O60888)”, the “probe-labelled cysteine peptide fold change” value reads like this: (10 µM) -0.315; (50 µM) -0.34.
As for “DCTN5_Q9BTE1_97_GVAFFPLHIGDHVFIEEDCVVNAAQIGSYVHVGK (UniProt Q9BTE1)”, the “probe-labelled cysteine peptide fold change” value (10 µM) is 0.123 and the “probe-labelled cysteine peptide fold change” value (50 µM) was 0.136.
Consider “DARS2_Q6PI48_202_EYLCNLHGFVDIETPTLFK (UniProt Q6PI48)”, for which the “probe-labelled cysteine peptide fold change” value is, setting by setting: (10 µM) 0.287; (50 µM) 0.216.
Take “CTSC_P53634_355_YYSSEYHYVGGFYGGCNEALMK (UniProt P53634)”: the “probe-labelled cysteine peptide fold change” value is 0.0557 (10 µM) and -0.136 (50 µM).
